Test results as given in the supplement of paper PMC9015667.
Where a name gives a salt, the structure may show the parent alone. Some of the results follow. Many values rest on one well or one pass, so single values are uncertain.

system: M229R (matched melanoma line resistant to BRAF inhibitors); assay: reduction in cell viability relative to untreated/vehicle; higher = more growth inhibition; conditions: 200 nM; 72 h

Structure (SMILES) | reduction in cell viability
CCC[C@@H]1C[C@@H](C(=O)N[C@@H]([C@H]2O[C@H](SC)[C@H](O)[C@@H](O)[C@H]2O)[C@H](C)Cl)N(C)C1 [Clindamycin hydrochloride] | < 0%
CCCCOc1ccc(CC(=O)NO)cc1 [Bufexamac] | < 0%
CCCCCNC(=O)N1CCC(CN(Cc2ccc(Cl)cc2)Cc2ccc([N+](=O)[O-])s2)C1 (centres undefined) | < 0%
NC(=O)c1cccc(-c2cccc(OC(=O)NC3CCCCC3)c2)c1 | < 0%
COC1=C2C[C@@H](C)C[C@H](OC)[C@H](O)[C@@H](C)/C=C(\C)[C@H](OC(N)=O)[C@@H](OC)/C=C\C=C(/C)C(=O)NC(=CC1=O)C2=O [Geldanamycin] | 45.7%
Cn1cc(/C=C/C(=O)c2cccc(F)c2)cc1/C=C/C(=O)NO | < 0%
Clc1ccc(CCC(Cn2ccnc2)Sc2c(Cl)cccc2Cl)cc1 (centres undefined) [Butoconazole nitrate] | < 0%
CCOc1ccc(Nc2nc(-c3c(C)nc4ccccn34)cs2)cc1 | 57.5%
Nc1nc(=O)n([C@H]2C[C@H](O)[C@@H](CO)O2)cc1F | < 0%
C=CC(=O)N1CCC[C@@H](n2nc(-c3ccc(Oc4ccccc4)cc3)c3c(N)ncnc32)C1 | < 0%
O=C1CCCC(=O)C1C(=O)c1ccc(C(F)(F)F)cc1[N+](=O)[O-] [Nitisinone] | < 0%
CCn1c(-c2nonc2N)nc2cnc(Oc3cccc(NC(=O)c4ccc(OCCN5CCOCC5)cc4)c3)cc21 | 13.8%
CC[C@H](CO)Nc1nc(NCc2ccccc2)c2ncn(C(C)C)c2n1 [Seliciclib] | < 0%
CCOC(=O)N1CCN(/[N+]([O-])=N/Oc2cc(O/N=[N+](\[O-])N3CCN(C(=O)OCC)CC3)c([N+](=O)[O-])cc2[N+](=O)[O-])CC1 [Double JS-K] | < 0%
CN(Cc1cc(Br)cc(Br)c1N)C1CCCCC1 [Bromhexine hydrochloride] | < 0%
Fc1cc(-c2cccc3ncc(-c4cnn(C5CCNCC5)c4)nc23)cc(F)c1CN1CCOCC1 | < 0%
COc1ccc(-n2nc(C(N)=O)c3c2C(=O)N(c2ccc(N4CCCCC4=O)cc2)CC3)cc1 [Apixaban] | < 0%
CCCCC(F)(F)[C@@]1(O)CC[C@H]2[C@@H](CC(=O)[C@@H]2CCCCCCC(=O)O)O1 [Lubiprostone] | < 0%
CC[C@]1(O)C[C@@H]2CN(CCc3c([nH]c4ccccc34)[C@@](C(=O)OC)(c3cc4c(cc3OC)N(C)[C@H]3[C@@](O)(C(=O)OC)[C@H](OC(C)=O)[C@]5(CC)C=CCN6CC[C@]43[C@@H]65)C2)C1 [Vinblastine] | 46.7%
CCN(CC)CCOc1ccc(C(=C(Cl)c2ccccc2)c2ccccc2)cc1 [Clomifene citrate] | < 0%

Structure (SMILES) | reduction in cell viability
CCN(CC)CCCCNc1nc2cc(Cl)c(Cl)cc2nc1-c1ccc(-c2cccs2)s1 | < 0%
NNCCc1ccccc1 [Phenelzine] | < 0%
C[C@H](NC(=O)Cc1cc(F)cc(F)c1)C(=O)N[C@@H]1C(=O)N(C)c2ccccc2-c2ccccc21 | < 0%
CCN(CC)CCCC(C)Nc1nc(C)cc(Nc2ccc3nc(C)cc(N)c3c2)n1 (centres undefined) | 10.9%
Cc1cc2nc3c(=O)[nH]c(=O)nc-3n(C[C@H](O)[C@H](O)[C@H](O)CO)c2cc1C | < 0%
Nc1ccn([C@@H]2O[C@H](CO)[C@@H](O)[C@H]2O)c(=O)n1 [Cytidine] | 0.79%
O=S(=O)(O)CCS [Mesna] | < 0%
CNC(=O)c1cc(Oc2ccc(NC(=O)Nc3ccc(Cl)c(C(F)(F)F)c3)cc2)ccn1 [Sorafenib] | < 0%
O=C(c1ccc(Nc2nccc(-c3cc4ccccc4s3)n2)cc1)N1CCC(N2CCCC2)CC1 | 4.47%
COC(=O)N1CCN(Cc2cccc(NC(=O)Nc3ccc(C)nc3)c2F)CC1 [Omecamtiv mecarbil] | < 0%
CCC1=C[C@@H]2CN(C1)Cc1c([nH]c3ccccc13)[C@@](C(=O)OC)(c1cc3c(cc1OC)N(C)[C@H]1[C@@](O)(C(=O)OC)[C@H](OC(C)=O)[C@]4(CC)C=CCN5CC[C@]31[C@@H]54)C2 [Vinorelbine tartrate] | 43.9%
CC(=O)Nc1cccc(-n2c(=O)n(C3CC3)c(=O)c3c(Nc4ccc(I)cc4F)n(C)c(=O)c(C)c32)c1 [Trametinib] | 16.4%
CC(C)=CC[C@@H](O)C1=CC(=O)c2c(O)ccc(O)c2C1=O [Shikonin] | < 0%
CC[C@@H]1/C=C(\C)C[C@H](C)C[C@H](OC)[C@H]2O[C@@](O)(C(=O)C(=O)N3CCCC[C@H]3C(=O)O[C@H](/C(C)=C/[C@@H]3CC[C@H](Cl)[C@H](OC)C3)[C@H](C)[C@@H](O)CC1=O)[C@H](C)C[C@@H]2OC [Pimecrolimus] | < 0%
S=c1nc[nH]c2nc[nH]c12 [6-mercaptopurine] | 12.3%
C[C@@H]1CN(c2c(F)c(N)c3c(=O)c(C(=O)O)cn(C4CC4)c3c2F)C[C@H](C)N1 [Sparfloxacin] | < 0%
OCCn1cc(-c2cnc3nnn(Cc4ccc5ncccc5c4)c3n2)cn1 | < 0%
Cc1cncc2cccc(S(=O)(=O)N3CCCN(C(=O)CN)C[C@@H]3C)c12 [Glycyl-H-1152] | < 0%
CC(O)(C#Cc1ccc2c(c1)N(c1nc(N)ncc1Cl)CC2)c1nccs1 (centres undefined) | < 0%

2 entries from above, reformatted:

| Structure (SMILES) | reduction in cell viability |
| --- | --- |
| S=c1nc[nH]c2nc[nH]c12 [6-mercaptopurine] | 12.3% |
| C[C@@H]1CN(c2c(F)c(N)c3c(=O)c(C(=O)O)cn(C4CC4)c3c2F)C[C@H](C)N1 [Sparfloxacin] | < 0% |
